The target of one experiment is NusG-SPA (E. coli K12) (UniProt P0AFG0). The experiment in a line: affinity purification with mass spectrometry; lysate of K12 strains with endogenous C-terminal SPA tag on anti-FLAG M2 agarose, eluted with TEV protease; LFQ against mock enrichment from K12 wild type, t-test 1% FDR, S0 of 2.
The next experiment has as its target T1, YacL-SPA (E. coli K12) (UniProt P0A8E5).
T1 sequence: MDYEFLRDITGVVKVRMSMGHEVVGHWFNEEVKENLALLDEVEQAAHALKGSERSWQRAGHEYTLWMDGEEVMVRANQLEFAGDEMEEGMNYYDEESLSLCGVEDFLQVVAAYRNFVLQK
The experiment is described as above.

The chains behind the UniProt entries cited, without tags or fusion partners.
UniProt P0A8V2: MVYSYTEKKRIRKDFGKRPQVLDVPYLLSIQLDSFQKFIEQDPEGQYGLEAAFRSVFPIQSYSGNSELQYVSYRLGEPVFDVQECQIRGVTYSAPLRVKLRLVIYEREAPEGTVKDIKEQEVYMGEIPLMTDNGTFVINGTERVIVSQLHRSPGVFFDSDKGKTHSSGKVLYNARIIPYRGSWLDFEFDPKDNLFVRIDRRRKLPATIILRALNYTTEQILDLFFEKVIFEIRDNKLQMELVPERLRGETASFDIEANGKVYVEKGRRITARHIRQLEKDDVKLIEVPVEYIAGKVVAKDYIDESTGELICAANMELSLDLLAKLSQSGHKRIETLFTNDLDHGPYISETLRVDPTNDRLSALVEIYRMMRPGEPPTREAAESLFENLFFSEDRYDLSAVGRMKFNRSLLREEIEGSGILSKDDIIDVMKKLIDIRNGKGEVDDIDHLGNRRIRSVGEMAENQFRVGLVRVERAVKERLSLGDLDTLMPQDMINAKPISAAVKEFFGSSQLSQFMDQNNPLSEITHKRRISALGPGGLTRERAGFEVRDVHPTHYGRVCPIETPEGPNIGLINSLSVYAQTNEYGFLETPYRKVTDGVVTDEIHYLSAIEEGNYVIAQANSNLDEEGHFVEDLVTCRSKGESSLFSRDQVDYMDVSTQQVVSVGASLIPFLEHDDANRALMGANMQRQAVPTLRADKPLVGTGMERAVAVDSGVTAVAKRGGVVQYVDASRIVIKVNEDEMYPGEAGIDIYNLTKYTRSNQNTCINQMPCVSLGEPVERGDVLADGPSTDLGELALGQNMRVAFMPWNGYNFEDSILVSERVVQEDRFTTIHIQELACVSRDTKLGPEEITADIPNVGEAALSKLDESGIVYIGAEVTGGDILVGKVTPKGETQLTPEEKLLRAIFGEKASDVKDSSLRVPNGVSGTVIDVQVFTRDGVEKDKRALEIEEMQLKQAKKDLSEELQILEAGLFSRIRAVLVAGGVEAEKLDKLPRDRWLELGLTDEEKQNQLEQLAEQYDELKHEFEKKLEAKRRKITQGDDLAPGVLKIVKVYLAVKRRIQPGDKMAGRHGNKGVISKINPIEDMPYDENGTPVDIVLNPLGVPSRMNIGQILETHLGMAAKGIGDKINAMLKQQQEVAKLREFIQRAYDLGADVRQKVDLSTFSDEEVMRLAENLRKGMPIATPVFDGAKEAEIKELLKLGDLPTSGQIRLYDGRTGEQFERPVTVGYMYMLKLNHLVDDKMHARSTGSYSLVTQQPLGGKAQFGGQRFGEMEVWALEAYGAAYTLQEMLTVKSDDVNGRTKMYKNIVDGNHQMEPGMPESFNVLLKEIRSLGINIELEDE
UniProt P60240: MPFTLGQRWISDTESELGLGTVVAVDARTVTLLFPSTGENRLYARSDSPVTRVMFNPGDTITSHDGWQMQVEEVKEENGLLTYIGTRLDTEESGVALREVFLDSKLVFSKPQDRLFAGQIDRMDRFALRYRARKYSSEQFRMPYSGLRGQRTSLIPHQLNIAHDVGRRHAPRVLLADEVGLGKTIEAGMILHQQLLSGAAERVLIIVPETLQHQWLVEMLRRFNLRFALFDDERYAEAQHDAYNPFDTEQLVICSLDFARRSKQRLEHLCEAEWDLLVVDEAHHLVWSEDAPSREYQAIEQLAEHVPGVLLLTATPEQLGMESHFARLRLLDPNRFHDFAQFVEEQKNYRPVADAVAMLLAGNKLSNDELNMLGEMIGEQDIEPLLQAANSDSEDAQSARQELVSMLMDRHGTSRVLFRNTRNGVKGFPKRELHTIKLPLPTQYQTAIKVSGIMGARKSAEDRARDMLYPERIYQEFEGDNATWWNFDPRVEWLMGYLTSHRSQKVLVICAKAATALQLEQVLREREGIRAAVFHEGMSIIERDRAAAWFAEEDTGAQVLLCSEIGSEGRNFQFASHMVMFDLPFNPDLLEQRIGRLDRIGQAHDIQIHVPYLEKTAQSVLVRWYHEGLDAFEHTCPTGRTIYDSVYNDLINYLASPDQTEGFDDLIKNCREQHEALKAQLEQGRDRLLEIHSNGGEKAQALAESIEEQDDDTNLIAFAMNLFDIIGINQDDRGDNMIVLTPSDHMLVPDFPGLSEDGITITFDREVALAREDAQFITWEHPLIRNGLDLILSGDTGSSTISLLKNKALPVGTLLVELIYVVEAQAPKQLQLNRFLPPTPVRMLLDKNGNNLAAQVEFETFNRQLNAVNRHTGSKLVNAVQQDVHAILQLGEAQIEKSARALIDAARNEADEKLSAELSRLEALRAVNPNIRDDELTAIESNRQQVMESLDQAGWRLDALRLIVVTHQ

Experiment [1] concerns the target T2, SPA-tagged YacL (E. coli K12) (UniProt P0A8E5).
T2 sequence: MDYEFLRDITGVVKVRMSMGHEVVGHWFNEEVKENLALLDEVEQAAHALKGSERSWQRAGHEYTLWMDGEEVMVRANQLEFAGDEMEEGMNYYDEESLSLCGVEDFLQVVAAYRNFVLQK
Kind of experiment: affinity purification with mass spectrometry; lysates of K12 strains with endogenously C-terminal SPA-tagged yacL, nusG or rpoB on Anti-FLAG M2 agarose, 2 h at 4 °C, eluted with TEV protease; LFQ against K12 wildtype mock enrichment, 1% FDR.

Another experiment addresses RpoB-SPA (E. coli K12) (UniProt P0A8V2). Kind of experiment: affinity purification with mass spectrometry; lysate of K12 strains with endogenous C-terminal SPA tag on anti-FLAG M2 agarose, eluted with TEV protease; LFQ against mock enrichment from K12 wild type, t-test 1% FDR, S0 of 2.
Experiment [2] deals with SPA-tagged NusG (E. coli K12) (UniProt P0AFG0). Kind of experiment: affinity purification with mass spectrometry; lysates of K12 strains with endogenously C-terminal SPA-tagged yacL, nusG or rpoB on Anti-FLAG M2 agarose, 2 h at 4 °C, eluted with TEV protease; LFQ against K12 wildtype mock enrichment, 1% FDR.
The target of experiment [3] is SPA-tagged RpoB (E. coli K12) (UniProt P0A8V2). Described as above.

The values that follow come from paper PMC8196013.

Results are given in words; binding and its absence hold for the method and conditions named. Binding seen in cells or lysates may run through a third protein. Here binding means that the protein was enriched with, or labelled near, the bait; the list need not be complete. For some assays here: Tags and fused reporters may be left off the sequences shown.

With NusA (from UniProt P0AFF6 1-495), the binding entry with NusG-SPA (E. coli K12) and with YacL-SPA (E. coli K12) was “binds” throughout.
With NusG (from UniProt P0AFG0 1-181), the binding entry in experiment [1] is listed as “binds”.
Take RapA (from UniProt P60240 1-968): the binding result in the experiment with NusG-SPA (E. coli K12), with RpoB-SPA (E. coli K12) and with YacL-SPA (E. coli K12) was “binds” throughout.

B1: GreB (protein, UniProt P30128 1-158)
chain: MKTPLVTREGYEKLKQELNYLWREERPEVTKKVTWAASLGDRSENADYQYNKKRLREIDRRVRYLTKCLENLKIVDYSPQQEGKVFFGAWVEIENDDGVTHRFRIVGYDEIFGRKDYISIDSPMARALLKKEVGDLAVVNTPAGEASWYVNAIEYVKP
For the molecule B1, the binding result in the experiment with NusG-SPA (E. coli K12) is recorded as “binds”.

B2: YacL (protein, UniProt P0A8E5 1-120)
chain: MDYEFLRDITGVVKVRMSMGHEVVGHWFNEEVKENLALLDEVEQAAHALKGSERSWQRAGHEYTLWMDGEEVMVRANQLEFAGDEMEEGMNYYDEESLSLCGVEDFLQVVAAYRNFVQQK
For B2, the binding result in experiment [2] and in experiment [3] was “binds” each time.

B3: msyB (protein, UniProt P25738 1-124)
chain: MTMYATLEEAIDAAREEFLADNPGIDAEDANVQQFNAQKYVLQDGDIMWQVEFFADEGEEGECLPMLSGEAAQSVFDGDYDEIEIRQEWQEENTLHEWDEGEFQLEPPLDTEEGRAAADEWDER
On to B3, for which the binding entry in the experiment with NusG-SPA (E. coli K12) and with YacL-SPA (E. coli K12) was “binds” throughout.
